Assay results reported in article PMC7862700.
The entries are a selection whose mix differs from that of the whole data set. At the low end of the ranking, values are background and their order means little.

Amino acid sequences for entries named in this document (tags omitted). A change or cut given only in a name is not applied to a line headed by its entry.
UniProt Q01892: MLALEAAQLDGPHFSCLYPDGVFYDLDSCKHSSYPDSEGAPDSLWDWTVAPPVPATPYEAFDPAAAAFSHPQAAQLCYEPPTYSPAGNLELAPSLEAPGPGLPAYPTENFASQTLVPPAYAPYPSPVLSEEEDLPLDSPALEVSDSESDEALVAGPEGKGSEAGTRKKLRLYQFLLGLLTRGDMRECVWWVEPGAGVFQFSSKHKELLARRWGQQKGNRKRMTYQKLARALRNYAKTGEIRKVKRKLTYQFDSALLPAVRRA
UniProt P41161: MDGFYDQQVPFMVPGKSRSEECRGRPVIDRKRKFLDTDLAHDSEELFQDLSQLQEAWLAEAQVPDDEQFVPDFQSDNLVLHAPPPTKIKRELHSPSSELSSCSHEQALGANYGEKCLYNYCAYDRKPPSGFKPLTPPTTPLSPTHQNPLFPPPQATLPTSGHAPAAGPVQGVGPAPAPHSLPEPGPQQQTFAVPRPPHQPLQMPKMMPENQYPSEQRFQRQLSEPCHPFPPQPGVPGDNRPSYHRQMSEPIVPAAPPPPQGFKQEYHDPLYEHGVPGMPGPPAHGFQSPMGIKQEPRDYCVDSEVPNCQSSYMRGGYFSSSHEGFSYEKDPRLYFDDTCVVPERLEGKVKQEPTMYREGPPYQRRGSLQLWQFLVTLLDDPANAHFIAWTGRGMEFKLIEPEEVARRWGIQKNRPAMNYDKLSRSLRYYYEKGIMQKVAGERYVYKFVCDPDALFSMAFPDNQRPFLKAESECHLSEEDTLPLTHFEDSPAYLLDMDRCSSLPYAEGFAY
UniProt Q99607: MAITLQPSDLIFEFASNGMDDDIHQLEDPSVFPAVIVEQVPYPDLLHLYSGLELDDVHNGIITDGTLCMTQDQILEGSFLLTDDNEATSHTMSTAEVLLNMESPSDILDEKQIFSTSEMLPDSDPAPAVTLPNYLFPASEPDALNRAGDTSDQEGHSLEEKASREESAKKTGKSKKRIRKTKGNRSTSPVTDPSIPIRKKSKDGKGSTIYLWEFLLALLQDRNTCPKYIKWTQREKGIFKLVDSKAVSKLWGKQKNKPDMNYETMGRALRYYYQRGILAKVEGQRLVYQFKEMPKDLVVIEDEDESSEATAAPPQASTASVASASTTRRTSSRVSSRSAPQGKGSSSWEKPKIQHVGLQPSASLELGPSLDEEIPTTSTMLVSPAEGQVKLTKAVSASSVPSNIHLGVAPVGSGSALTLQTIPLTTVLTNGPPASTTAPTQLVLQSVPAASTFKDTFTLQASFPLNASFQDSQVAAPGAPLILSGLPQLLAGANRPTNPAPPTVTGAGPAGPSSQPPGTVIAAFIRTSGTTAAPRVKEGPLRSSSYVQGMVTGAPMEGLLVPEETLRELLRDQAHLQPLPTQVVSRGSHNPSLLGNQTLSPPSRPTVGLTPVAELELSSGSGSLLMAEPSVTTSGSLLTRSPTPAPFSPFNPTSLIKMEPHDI

Key:
Assay in all cases: DAPPL (digital affinity profiling via proximity ligation, sequencing)
Conditions in all cases: 10 mM Tris-HCl pH 7.5, 50 mM NaCl, 1 mM DTT, 4% glycerol, room temperature, 30 min; GST-TFs on glutathione beads, 16-mer random dsDNA library, 0.1% …; high values mean tight binding; double strand, one strand shown; scale: fold enrichment (6-mer frequency, TF over GST control)
FLI1 = molecular target: T1, FLI1 (UniProt Q01543)
T1 sequence: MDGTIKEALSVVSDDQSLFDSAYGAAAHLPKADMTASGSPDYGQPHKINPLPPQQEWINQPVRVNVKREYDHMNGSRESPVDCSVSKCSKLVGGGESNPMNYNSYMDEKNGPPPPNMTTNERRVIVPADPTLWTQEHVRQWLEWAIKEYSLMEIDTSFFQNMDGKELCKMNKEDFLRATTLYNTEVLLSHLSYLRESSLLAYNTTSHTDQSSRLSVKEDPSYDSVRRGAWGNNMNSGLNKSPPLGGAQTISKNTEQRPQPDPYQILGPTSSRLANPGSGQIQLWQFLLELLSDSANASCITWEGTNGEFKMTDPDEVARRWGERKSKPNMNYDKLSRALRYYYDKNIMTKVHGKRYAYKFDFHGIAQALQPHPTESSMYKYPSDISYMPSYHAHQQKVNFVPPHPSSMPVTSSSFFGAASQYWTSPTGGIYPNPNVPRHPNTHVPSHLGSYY

EHF = molecular target: T2, EHF (UniProt Q9NZC4)
T2 sequence: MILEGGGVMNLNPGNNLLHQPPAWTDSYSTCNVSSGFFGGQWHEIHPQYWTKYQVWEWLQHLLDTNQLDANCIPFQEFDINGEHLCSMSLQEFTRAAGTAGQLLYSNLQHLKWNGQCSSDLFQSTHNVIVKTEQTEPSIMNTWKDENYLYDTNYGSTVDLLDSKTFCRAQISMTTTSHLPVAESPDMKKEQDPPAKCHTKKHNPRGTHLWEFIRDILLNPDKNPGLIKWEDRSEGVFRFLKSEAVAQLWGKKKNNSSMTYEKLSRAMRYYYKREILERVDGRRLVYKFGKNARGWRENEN

SPIB = SPIB (UniProt Q01892)
ETV5 = ETV5 (UniProt P41161)
ELF4 = ELF4 (UniProt Q99607)
ETV2 = molecular target: T3, ETV2 (UniProt O00321)
T3 sequence: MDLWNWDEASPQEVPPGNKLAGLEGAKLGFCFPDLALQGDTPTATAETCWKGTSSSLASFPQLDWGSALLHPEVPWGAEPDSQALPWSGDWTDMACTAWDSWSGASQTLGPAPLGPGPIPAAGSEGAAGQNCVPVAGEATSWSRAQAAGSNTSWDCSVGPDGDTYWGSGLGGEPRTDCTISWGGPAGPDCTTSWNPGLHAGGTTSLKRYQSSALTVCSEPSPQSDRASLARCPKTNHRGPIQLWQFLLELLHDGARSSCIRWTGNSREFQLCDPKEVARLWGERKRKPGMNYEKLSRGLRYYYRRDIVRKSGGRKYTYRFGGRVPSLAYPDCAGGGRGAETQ

ETV3L = molecular target: T4, ETV3L (UniProt Q6ZN32)
T4 sequence: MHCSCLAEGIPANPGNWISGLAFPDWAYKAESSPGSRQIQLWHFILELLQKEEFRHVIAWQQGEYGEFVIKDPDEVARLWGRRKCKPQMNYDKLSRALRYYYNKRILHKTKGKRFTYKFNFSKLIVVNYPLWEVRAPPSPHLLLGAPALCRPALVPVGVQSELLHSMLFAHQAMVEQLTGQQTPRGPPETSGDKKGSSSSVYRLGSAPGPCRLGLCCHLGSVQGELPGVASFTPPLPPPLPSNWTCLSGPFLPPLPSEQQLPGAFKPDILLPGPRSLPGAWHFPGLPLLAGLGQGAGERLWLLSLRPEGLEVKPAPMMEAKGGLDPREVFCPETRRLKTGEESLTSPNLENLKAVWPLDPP

Sequence	binding signal (FLI1)	binding signal (EHF)	binding signal (SPIB)	binding signal (ETV5)	binding signal (ELF4)	binding signal (ETV2)	binding signal (ETV3L)
AGGACG	0.501	0.473	0.504	0.499	0.451	0.453	0.542
TGGGCC	0.964	0.929	0.904	0.804	0.856	0.986	0.949
GGCAGG	0.628	0.614	0.611	0.629	0.55	0.624	0.649
CAAGTG	0.771	0.776	0.791	0.752	0.756	0.679	0.728
AGGTTG	0.699	0.812	0.79	0.74	0.794	0.89	0.794
GGCCAC	0.944	1.03	0.972	0.923	0.988	0.871	0.887
CGCAGT	0.769	0.753	0.788	0.782	0.757	0.917	0.743
GTGCAG	0.604	0.75	0.802	0.735	0.791	0.738	0.718
GTGGCG	0.772	0.768	0.823	0.841	0.794	0.83	0.93
CTAGTC	0.721	0.755	0.711	0.747	0.756	0.703	0.751
GTGGAC	0.837	0.932	0.859	0.888	0.9	0.824	0.914
AACCAG	0.822	0.909	0.89	0.873	0.789	0.839	0.895
AGAGTG	0.642	0.657	0.571	0.668	0.624	0.636	0.61
CAGGCT	0.822	0.799	0.834	0.833	0.81	0.781	0.8
GGGAGT	0.235	0.206	0.247	0.256	0.213	0.296	0.255
ACCGCG	0.913	0.793	0.833	0.819	0.868	0.947	0.85
GTCAAG	0.725	0.778	0.777	0.801	0.773	0.783	0.816
ACGGAG	0.368	0.378	0.402	0.328	0.36	0.367	0.393
GAGCCC	0.781	0.704	0.72	0.794	0.722	0.7	0.662
ACCCAG	0.699	0.709	0.733	0.735	0.743	0.772	0.719
GGCTGG	0.793	0.712	0.758	0.698	0.82	0.762	0.789
GGCAGT	0.564	0.513	0.518	0.503	0.517	0.538	0.487
CGTGTT	0.862	0.854	0.757	0.837	0.823	0.773	0.822
CGAGCC	0.862	0.907	0.872	0.844	0.805	0.75	0.775
CCGGGG	0.754	0.746	0.783	0.814	0.723	0.731	0.763
CCGAGA	0.583	0.659	0.631	0.619	0.604	0.582	0.571
GGGCAC	0.797	0.748	0.818	0.834	0.806	0.82	0.752
TCGGAA	0.541	0.55	0.561	0.596	0.531	0.468	0.561
GACGCG	0.629	0.67	0.604	0.607	0.639	0.745	0.669
TCGTGA	0.344	0.366	0.323	0.327	0.352	0.283	0.364

Quoted at random: two entries already listed.
Sequence	binding signal (FLI1)	binding signal (EHF)	binding signal (SPIB)	binding signal (ETV5)	binding signal (ELF4)	binding signal (ETV2)	binding signal (ETV3L)
TCGTGA	0.344	0.366	0.323	0.327	0.352	0.283	0.364
GTGCAG	0.604	0.75	0.802	0.735	0.791	0.738	0.718
